Experimental findings from patent US20030148444A1 are described below.

The chains behind the UniProt entries cited, without tags or fusion partners.
UniProt P10852: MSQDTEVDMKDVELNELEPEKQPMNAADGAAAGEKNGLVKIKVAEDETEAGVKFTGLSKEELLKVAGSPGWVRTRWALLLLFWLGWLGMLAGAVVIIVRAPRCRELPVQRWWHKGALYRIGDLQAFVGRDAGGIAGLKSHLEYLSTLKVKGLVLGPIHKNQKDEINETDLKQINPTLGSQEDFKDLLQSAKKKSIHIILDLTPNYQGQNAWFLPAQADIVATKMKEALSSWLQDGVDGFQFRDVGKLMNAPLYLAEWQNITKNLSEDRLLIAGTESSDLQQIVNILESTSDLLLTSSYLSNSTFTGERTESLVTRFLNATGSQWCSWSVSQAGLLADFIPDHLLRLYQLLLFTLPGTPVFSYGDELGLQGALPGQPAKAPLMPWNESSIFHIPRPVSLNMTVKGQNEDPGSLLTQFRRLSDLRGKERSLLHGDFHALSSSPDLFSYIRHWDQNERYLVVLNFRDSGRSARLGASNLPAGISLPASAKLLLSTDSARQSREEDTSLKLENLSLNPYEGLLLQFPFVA

No constants are given. Whether binding was seen depends on the method and setting. Some results given as binding are weak or reduced against the parent protein; the word gives no strength.

The experiment addresses 4F2hc of mouse (mouse) (UniProt P10852). Nature of the experiment: western blot of mouse cerebral membrane fraction; 118 kDa complex under non-reducing condition resolved by 2-mercaptoethanol. For orientation: A western blot detects proteins with antibodies after separation by electrophoresis.

B1: sodium-independent small neutral amino acid transporter asc-1 of mouse (protein)
chain: MRRDSDMASHIQQPGGHGNPGPAPSPSPGPGPGPGASERVALKKEIGLVSACTIIIGNIIGSGIFISPKGVLEHSGSVGLALFVWVLGGGVTALGSLCYAELGVAIPKSGGDYAYVTEIFGGLAGFLLLWSAVLIMYPTSLAVISMTFSNYVLQPVFPNCIPPATASRVLSMACLMLLTWVNSSSVRWATRIQVIFTGGKLLALSLIITVGFVQIFQGHFEELRPTNAFAFWMTPSVGHLALAFLQGSFAFSGWNFLNYVTEELVDPRKNLPRAIFISIPLVTFVYTFTNVAYFTAMSPQELLSSNAVAVTFGEKLLGYFSWVMPVSVALSTFGGINGYLFTSSRLCFSGAREGHLPSFLAMIHVRRCTPIPALLVCCGATAVIMLVGDTYTLINYVSFINYLCYGVTILGLLVLRWRRPALHRPIKVNLLVPVVYLVFWAFLLVFSFISEPMVCGVGIIIILTGVPIFFLGVFWRSKPKCVHRFTESMTRWGQELCFVVYPQGSLEEEENGPMGQPSPLPITDKPLKTQ
As for B1, the binding entry is listed as “binds”.
